Assay results published in patent US11666558B2, “Methods of treating intraocular pressure with activators of Tie-2” (EyePoint Pharmaceuticals, Inc., priority 2015, dated 2023).
Where “and” joins values, the source holds several entries; their conditions need not be identical. Equal entries are not always repeated. The source gives many values for each of these; only a part stands here.

Test: Ocular tissue concentrations (aqueous humor, vitreous humor, iris, retina, choroid, cornea) after topical ocular, subcutaneous and intravitreal administration
Assay type: in vivo, New Zealand White rabbits
Conditions: for Conc. (ng/mL) OD / Conc. (ng/g) OD: right eye; for Conc. (ng/mL) OD / Conc. (ng/mL) OS / Conc. (ng/g) OS / Conc. (ng/g) OD / Avg.: intravitreal 2.5 mg/eye (group 5); for Conc. (ng/mL) OD / Conc. (ng/mL) OS / Conc. (ng/g) OS / Conc. (ng/g) OD: individual animals; for Conc. (ng/mL) OS / Conc. (ng/g) OS: left eye; for Avg.: average; for Choroid Conc. (ng/mL) OS / Choroid Conc. (ng/mL) OD: TABLE 16: Choroid homogenate; for Choroid Conc. (ng/g) OS / Choroid Conc. (ng/g) OD: TABLE 16: Choroid
Description: To measure the concentration of Compound 1 in plasma and ocular tissues following topical ocular, subcutaneous, and intravitreal administration, New Zealand White rabbits were administered Compound 1, and plasma and ocular samples were collected at pre-determined time points. Compound 1 formulations were prepared fresh on each day of dosing.
Ocular tissue samples from both eyes of each animal were collected and weights were recorded. Plasma and ocular tissue sample concentrations of Compound 1 were determined by LC-MS/MS.
New Zealand White rabbits weighing 2.5 to 3.5 kg were used on this study. Rabbits were housed one per cage. Animals were not fasted and only healthy animals with no ocular illness were used. Two rabbits per group were sacrificed at each of four ocular tissue sampling time points for a total of eight rabbits per group.
Animals were anesthetized for ocular (topical) and intravitreal dosing following the 12IA7 IACUC protocol. Each rabbit received a bolus dose of test formulation either via topical ocular administration 3 times daily on Days 1 and 2 (at 0, 6, and 12 hours), and once on Day 3 (at 0 hours) into both eyes; via intravitreal administration into both eyes once on Day 1 (at 0 hours); or via subcutaneous administration 2 times daily on Days 1 and 2 (at 0 and 8 hours) and once daily on Day 3 (at 0 hours). Doses were given within an approximately 1 hour window each day where applicable.
On Day 1, for intravitreal administration, or on Day 3, for topical ocular and subcutaneous administration, at the appropriate ocular tissue collection time points, animals were euthanized and both eyes were enucleated immediately. Following enucleation, each eye was rinsed with phosphate-buffered saline. Ocular tissue samples from both eyes of each animal were collected at predetermined time points and weights were recorded. All the samples were frozen immediately on dry ice, and stored at −60° C. to −80° C. pending bioanalysis.
An LC-MS/MS method was developed for the determination of Compound 1 in rabbit aqueous tissues (plasma, aqueous and vitreous humor) and solid ocular tissue samples. A pre-study standard curve was analyzed to determine the specificity, range, and lower limit of quantitation of the method. Plasma and tissue homogenate study samples were extracted and analyzed. All the samples were treated identically to the standards.
One eight-point standard curve was used in each analytical batch. To be accepted, each batch must have had at least five of eight standards with accuracy within ±20% of nominal, except at the lower limit of quantification (LLOQ), where ±25% was acceptable.
Concentration versus time data is plotted in FIGS. 3-16. All data are expressed as ng/g of the free drug. Samples that were below the limit of quantitation (0.2 ng/mL) were not used in the calculation of averages.

[1] = 0.5 hr, free acid, subcutaneous 5 mg/kg/dose, Group 3
[2] = 1 hr, OD, free acid, subcutaneous 5 mg/kg/dose, Group 3
[3] = 1 hr, free acid, subcutaneous 5 mg/kg/dose, Group 3
[4] = 2 hr, OD, free acid, subcutaneous 5 mg/kg/dose, Group 3
[5] = 2 hr, free acid, subcutaneous 5 mg/kg/dose, Group 3
[6] = 4 hr, OD, free acid, subcutaneous 5 mg/kg/dose, Group 3

## COC(=O)N[C@@H](Cc1ccccc1)C(=O)N[C@@H](Cc1ccc(NS(=O)(=O)O)cc1)c1csc(-c2cccs2)n1 [Compound 1]
Iris homogenate, 6.0 hr
  Conc. (ng/mL) OD: 32100 ng/mL
Iris homogenate, 24 hr, OD, sodium salt, intravitreal 2.5 mg/eye, Group 4
  Iris Conc. (ng/mL) OD: 11000 ng/mL
Iris homogenate, 24 hr
  Conc. (ng/mL) OS: 8200 ng/mL
  Conc. (ng/mL) OD: 11000 ng/mL
Iris homogenate, 48 hr, OD, sodium salt, intravitreal 2.5 mg/eye, Group 4
  Iris Conc. (ng/mL) OD: 1820 ng/mL
Iris homogenate, 48 hr, sodium salt, intravitreal 2.5 mg/eye, Group 4
  Iris Conc. (ng/mL) OS: 2780 ng/mL
Iris homogenate, 48 hr
  Conc. (ng/mL) OS: 2030 ng/mL
  Conc. (ng/mL) OD: 1110 ng/mL
Iris homogenate, 72 hr, OD, sodium salt, intravitreal 2.5 mg/eye, Group 4
  Iris Conc. (ng/mL) OD: 110 ng/mL
Iris homogenate, 72 hr
  Conc. (ng/mL) OS: 1320 ng/mL
  Conc. (ng/mL) OD: 351 ng/mL
Iris, 0.5 hr, OD, sodium salt, subcutaneous 5 mg/kg/dose, Group 2
  Iris Conc. (ng/g) OD: 454 ng/g
Iris, 0.5 hr, free acid, subcutaneous 5 mg/kg/dose, Group 3
  Iris Conc. (ng/g) OS: 38.9 ng/g
Iris, 1 hr, OD, sodium salt, subcutaneous 5 mg/kg/dose, Group 2
  Iris Conc. (ng/g) OD: 99.2 ng/g
Iris, 1 hr, free acid, subcutaneous 5 mg/kg/dose, Group 3
  Iris Conc. (ng/g) OS: 34.3 ng/g
Iris, 1 hr, sodium salt, subcutaneous 5 mg/kg/dose, Group 2
  Iris Conc. (ng/g) OS: 56.4 ng/g
Iris, 2 hr, OD, free acid, subcutaneous 5 mg/kg/dose, Group 3
  Iris Conc. (ng/g) OD: 32.0 ng/g
Iris, 4 hr, OD, free acid, subcutaneous 5 mg/kg/dose, Group 3
  Iris Conc. (ng/g) OD: 17.9 ng/g
Iris, 4 hr, free acid, subcutaneous 5 mg/kg/dose, Group 3
  Iris Conc. (ng/g) OS: 8.73 ng/g
Iris, 6.0 hr, OD, sodium salt, intravitreal 2.5 mg/eye, Group 4
  Iris Conc. (ng/g) OD: 305800 ng/g
Iris, 6.0 hr, sodium salt, intravitreal 2.5 mg/eye, Group 4
  Iris Conc. (ng/g) OS: 336600 ng/g
Iris, 6.0 hr
  Conc. (ng/g) OS: 134200 ng/g
  Conc. (ng/g) OD: 353100 ng/g
Iris, 24 hr, OD, sodium salt, intravitreal 2.5 mg/eye, Group 4
  Iris Conc. (ng/g) OD: 121000 ng/g
Iris, 24 hr
  Conc. (ng/g) OS: 90200 ng/g
  Conc. (ng/g) OD: 121000 ng/g
Iris, 48 hr, OD, sodium salt, intravitreal 2.5 mg/eye, Group 4
  Iris Conc. (ng/g) OD: 20020 ng/g
Iris, 48 hr, sodium salt, intravitreal 2.5 mg/eye, Group 4
  Iris Conc. (ng/g) OS: 30580 ng/g
Iris, 48 hr
  Conc. (ng/g) OS: 22330 ng/g
  Conc. (ng/g) OD: 12210 ng/g
Iris, 72 hr, OD, sodium salt, intravitreal 2.5 mg/eye, Group 4
  Iris Conc. (ng/g) OD: 1210 ng/g
Iris, 72 hr
  Conc. (ng/g) OS: 14520 ng/g
  Conc. (ng/g) OD: 3861 ng/g
Retina homogenate, 0.5 hr, OD, sodium salt, subcutaneous 5 mg/kg/dose, Group 2
  Retina Conc. (ng/mL) OD: 3.17 ng/mL
Retina homogenate, 0.5 hr, sodium salt, subcutaneous 5 mg/kg/dose, Group 2
  Retina Conc. (ng/mL) OS: 4.43 ng/mL
Retina homogenate, 1 hr, OD, sodium salt, subcutaneous 5 mg/kg/dose, Group 2
  Retina Conc. (ng/mL) OD: 1.66 ng/mL
Retina homogenate, 1 hr, free acid, subcutaneous 5 mg/kg/dose, Group 3
  Retina Conc. (ng/mL) OS: 1.21 ng/mL
Retina homogenate, 1 hr, sodium salt, subcutaneous 5 mg/kg/dose, Group 2
  Retina Conc. (ng/mL) OS: 4.22 ng/mL
Retina homogenate, 6.0 hr
  Conc. (ng/mL) OS: 120000 ng/mL
  Conc. (ng/mL) OD: 146000 ng/mL and 303000 ng/mL
Retina homogenate, 24 hr, OD, sodium salt, intravitreal 2.5 mg/eye, Group 4
  Retina Conc. (ng/mL) OD: 35200 ng/mL
Retina homogenate, 24 hr
  Conc. (ng/mL) OS: 98900 ng/mL and 198000 ng/mL
  Conc. (ng/mL) OD: 145000 ng/mL
Retina homogenate, 48 hr, OD, sodium salt, intravitreal 2.5 mg/eye, Group 4
  Retina Conc. (ng/mL) OD: 7360 ng/mL
Retina homogenate, 48 hr, sodium salt, intravitreal 2.5 mg/eye, Group 4
  Retina Conc. (ng/mL) OS: 6530 ng/mL
Retina homogenate, 48 hr
  Conc. (ng/mL) OS: 14000 ng/mL and 101000 ng/mL
  Conc. (ng/mL) OD: 65500 ng/mL
Retina homogenate, 72 hr, OD, sodium salt, intravitreal 2.5 mg/eye, Group 4
  Retina Conc. (ng/mL) OD: 598 ng/mL
Retina homogenate, 72 hr, sodium salt, intravitreal 2.5 mg/eye, Group 4
  Retina Conc. (ng/mL) OS: 484 ng/mL
Retina homogenate, 72 hr
  Conc. (ng/mL) OS: 12900 ng/mL
  Conc. (ng/mL) OD: 6070 ng/mL
Retina, 0.5 hr, OD, sodium salt, subcutaneous 5 mg/kg/dose, Group 2
  Retina Conc. (ng/g) OD: 34.9 ng/g
Retina, 0.5 hr, sodium salt, subcutaneous 5 mg/kg/dose, Group 2
  Retina Conc. (ng/g) OS: 48.7 ng/g
Retina, 1 hr, OD, sodium salt, subcutaneous 5 mg/kg/dose, Group 2
  Retina Conc. (ng/g) OD: 18.3 ng/g
Retina, 1 hr, free acid, subcutaneous 5 mg/kg/dose, Group 3
  Retina Conc. (ng/g) OS: 13.3 ng/g
Retina, 1 hr, sodium salt, subcutaneous 5 mg/kg/dose, Group 2
  Retina Conc. (ng/g) OS: 46.4 ng/g
Retina, 6.0 hr
  Avg.: 1988250 ng/g
  Conc. (ng/g) OS: 1694000 ng/g and 1320000 ng/g
  Conc. (ng/g) OD: 1606000 ng/g
Retina, 24 hr, OD, sodium salt, intravitreal 2.5 mg/eye, Group 4
  Retina Conc. (ng/g) OD: 387200 ng/g
Retina, 24 hr, sodium salt, intravitreal 2.5 mg/eye, Group 4
  Retina Conc. (ng/g) OS: 407000 ng/g
Retina, 24 hr
  Avg.: 1572725 ng/g
  Conc. (ng/g) OS: 1087900 ng/g and 2178000 ng/g
  Conc. (ng/g) OD: 1430000 ng/g and 1595000 ng/g
Retina, 48 hr, OD, sodium salt, intravitreal 2.5 mg/eye, Group 4
  Retina Conc. (ng/g) OD: 80960 ng/g
Retina, 48 hr, sodium salt, intravitreal 2.5 mg/eye, Group 4
  Retina Conc. (ng/g) OS: 71830 ng/g
Retina, 48 hr
  Conc. (ng/g) OS: 1111000 ng/g
  Conc. (ng/g) OD: 720500 ng/g
Retina, 72 hr, OD, sodium salt, intravitreal 2.5 mg/eye, Group 4
  Retina Conc. (ng/g) OD: 6578 ng/g
Retina, 72 hr, sodium salt, intravitreal 2.5 mg/eye, Group 4
  Retina Conc. (ng/g) OS: 5324 ng/g
Retina, 72 hr
  Conc. (ng/g) OS: 141900 ng/g
  Conc. (ng/g) OD: 66770 ng/g
[1]
  Choroid Conc. (ng/mL) OS: 14.0 ng/mL
  Choroid Conc. (ng/g) OS: 154 ng/g
[2]
  Choroid Conc. (ng/mL) OD: 8.65 ng/mL
  Choroid Conc. (ng/g) OD: 95.2 ng/g
[3]
  Choroid Conc. (ng/mL) OS: 7.60 ng/mL
  Choroid Conc. (ng/g) OS: 83.6 ng/g
[4]
  Choroid Conc. (ng/mL) OD: 4.26 ng/mL
  Choroid Conc. (ng/g) OD: 46.9 ng/g
[5]
  Choroid Conc. (ng/mL) OS: 4.94 ng/mL
  Choroid Conc. (ng/g) OS: 54.3 ng/g
[6]
  Choroid Conc. (ng/mL) OD: 4.65 ng/mL
  Choroid Conc. (ng/g) OD: 51.2 ng/g
TABLE 16: Cornea homogenate, 4 hr, OD, free acid, subcutaneous 5 mg/kg/dose, Group 3
  Cornea Conc. (ng/mL) OD: 0.847 ng/mL
TABLE 16: Cornea, 4 hr, OD, free acid, subcutaneous 5 mg/kg/dose, Group 3
  Cornea Conc. (ng/g) OD: 9.32 ng/g
TABLE 16: Iris homogenate, 0.5 hr, free acid, subcutaneous 5 mg/kg/dose, Group 3
  Iris Conc. (ng/mL) OS: 3.54 ng/mL
TABLE 16: Iris homogenate, 1 hr, free acid, subcutaneous 5 mg/kg/dose, Group 3
  Iris Conc. (ng/mL) OS: 3.12 ng/mL
TABLE 16: Iris homogenate, 2 hr, OD, free acid, subcutaneous 5 mg/kg/dose, Group 3
  Iris Conc. (ng/mL) OD: 2.91 ng/mL
TABLE 16: Iris homogenate, 2 hr, free acid, subcutaneous 5 mg/kg/dose, Group 3
  Iris Conc. (ng/mL) OS: 1.67 ng/mL
TABLE 16: Iris homogenate, 4 hr, OD, free acid, subcutaneous 5 mg/kg/dose, Group 3
  Iris Conc. (ng/mL) OD: 1.63 ng/mL
TABLE 16: Iris homogenate, 4 hr, free acid, subcutaneous 5 mg/kg/dose, Group 3
  Iris Conc. (ng/mL) OS: 0.794 ng/mL
TABLE 16: Iris, 0.5 hr, free acid, subcutaneous 5 mg/kg/dose, Group 3
  Iris Conc. (ng/g) OS: 38.9 ng/g
TABLE 16: Iris, 1 hr, free acid, subcutaneous 5 mg/kg/dose, Group 3
  Iris Conc. (ng/g) OS: 34.3 ng/g
TABLE 16: Iris, 2 hr, OD, free acid, subcutaneous 5 mg/kg/dose, Group 3
  Iris Conc. (ng/g) OD: 32.0 ng/g
TABLE 16: Iris, 4 hr, OD, free acid, subcutaneous 5 mg/kg/dose, Group 3
  Iris Conc. (ng/g) OD: 17.9 ng/g
TABLE 16: Iris, 4 hr, free acid, subcutaneous 5 mg/kg/dose, Group 3
  Iris Conc. (ng/g) OS: 8.73 ng/g
TABLE 16: Retina homogenate, 1 hr, free acid, subcutaneous 5 mg/kg/dose, Group 3
  Retina Conc. (ng/mL) OS: 1.21 ng/mL
TABLE 16: Retina, 1 hr, free acid, subcutaneous 5 mg/kg/dose, Group 3
  Retina Conc. (ng/g) OS: 13.3 ng/g
